Assay results as given in patent publication US20250359758A1, “METHODS OF USING OPTICAL FIBER-BASED FLUORESCENCE SPECTROSCOPY FOR SURGICAL GUIDANCE AND/OR TISSUE DIAGNOSTICS AND APPLICATIONS OF SAME” (VANDERBILT UNIVERSITY, priority 2020, published 2025).

Tested on: parathyroid glands (PGs)
Assay: Fiber-optic probe (PTeye) detection of ICG fluorescence for parathyroid perfusion during surgery
Format: in vivo, human
Conditions: for Detection Ratio in PG*-Post 2 min, Ligated PGs (diseased) / Detection Ratio in PG*-Post 2 min, Unligated PGs (healthy): parathyroidectomy
Excerpt: According to the invention, by using the fiber optic probe based fluorescence detection system such as the PTeye, in conjunction with contrast agents such as ICG, IRDye 800CW or methylene blue, the PTeye can now be applied for tissue perfusion studies for a real-time quantitative feedback, especially for assessment of parathyroid perfusion during head and neck surgeries. First, a surgeon establishes baseline in patient and identifies all PGs using autofluorescence detection with the PTeye (without ICG, IRDye 800CW or methylene blue,). After identification of PGs, about 0.25-3.5 cc ICG (or IRDye 800CW, or methylene blue) is injected into the patient's bloodstream. After about 15-30 seconds, the PTeye probe is placed on the target PGs and the foot pedal is pressed. Detection level and Detection ratios for each PGs are recorded and compared.
Instrument Description: PTeye (AiBiomed, Santa Barbara, CA) comprises a console encasing a 785 nm laser source and a detector, a detachable and sterilizable fiber-optic probe, a foot pedal to activate NIR fluorescence measurements, and a display panel. The PTeye probe delivers laser light at a power of 20 mW over a spot size of about 400 μm. The PTeye is designed to detect NIR fluorescence without interference from ambient OR lights, which has been a limitation for other standard NIR imaging systems at present. Tissue NIR fluorescence recorded with the PTeye is conveyed to the display panel and to the loudspeaker as auditory feedback. The display panel informs the surgeon on the “detection level” (absolute tissue NIR fluorescence intensity), the “detection ratio” (tissue NIR fluorescence normalized to the thyroid NIR fluorescence intensity), and the “detection percentage” (the PTeye confidence in identifying PGs [calibrated to the “detection ratio”]). The auditory feedback commences once the “detection ratio” reaches a threshold value set for PG identification.
The surgeon first confers the degree of confidence in having identified PG tissue as high, moderate, or low, based on visual inspection of the tissue in view. […] In each patient, a NIRAF baseline was first established on the thyroid so that subsequent tissue NIRAF measurements in the patient could be normalized to this thyroid baseline for obtaining the “detection ratio”. The auditory feedback volume was kept inaudible and the PTeye display panel was turned away to decrease bias of the surgeon's judgment. The hand-held, probe-based PTeye provides real-time guidance in identifying the parathyroid gland during surgery. When parathyroid tissue is detected, the system provides an audio signal and visual display. The system accurately identified parathyroid glands 96.1% of the time. Similar processes are also applied in conjunction with near infrared contrast agents such as ICG for parathyroid angiography.
Evaluation of PTeye in an intraoperative setting for quantifying parathyroid perfusion using ICG: For testing the preliminary feasibility of PTeye for assessing parathyroid vascularity, patients who underwent parathyroidectomy were recruited for this aspect of the study. Prior to removal of the diseased PG, the blood supply to the gland is ligated as per routine procedure, which serves as a suitable imitation of PG devascularization for this study. After localizing the diseased PG and an adjacent healthy PG, 1 cc ICG (2.5 mg/ml) was subsequently administered into the patient's blood stream through the intravenous route. NIR fluorescence measurements were obtained from the exposed PGs before and after ICG administration.

[1] = 0.5 cc ICG (2.5 mg/ml) per injection, n = 3 PGs in 1 patient
[2] = 1 cc ICG (2.5 mg/ml) per injection, n = 6 PGs in 3 patients

For `CC1(C)C(/C=C/C=C/C=C/C=C2\N(CCCCS(=O)(=O)O)c3ccc4ccccc4c3C2(C)C)=[N+](CCCCS(=O)(=O)[O-])c2ccc3ccccc3c21` [ICG, indocyanine green], the “Detection Ratio in PG*-Post 2 min, Ligated PGs (diseased)” value [1] was 1.8, the “Detection Ratio in PG*-Post 2 min, Unligated PGs (healthy)” value [1] was 5.1-19.4 and the “Detection Ratio in PG*-Post 2 min, Ligated PGs (diseased)” value [2] was 1.6-21.0. For the same compound, the “Detection Ratio in PG*-Post 2 min, Unligated PGs (healthy)” value [2] was 66.4-168.5, the “Time after ICG administration at which NIR fluorescence was still detected in perfused PG tissues” value (1 cc ICG, 28.5% of the standard ICG dose (3.5 cc)) was 1 h and the “ICG fluorescence (detection ratio) of unligated PGs versus ligated PGs” value (4 parathyroidectomy patients, after gland ligation) was “significantly higher”. The “Lowest ICG dose whose NIR fluorescence the fiber-based detection is sensitive to” value (ICG solution 2.5 mg/ml) was 0.25 cc, the “Detection Ratio in PG*-Post 2 min” value (ICG solution 2.5 mg/ml, 0.25 cc per injection, n = 10 healthy unligated PGs, range over PGs) was 4.5-32.8 and the “Detection Ratio in PG*-Post 2 min” value (ICG solution 2.5 mg/ml, 0.5 cc per injection, n = 1 healthy unligated PG) was 19.4. The “Detection Ratio in PG*-Post 2 min” value (ICG solution 2.5 mg/ml, 1 cc per injection, n = 2 healthy unligated PGs, range over PGs) was 90.8-168.5, the “Detection Ratio in PG*-Post 2 min” value (ICG solution 2.5 mg/ml, 3.5 cc per injection, n = 2 healthy unligated PGs, range over PGs) was 274.8-374.4 and the “Lowest ICG dose whose NIR fluorescence the fiber-based detection (PTeye) is sensitive to” value (in vivo) was 0.6 mg. The “PTeye wait-time for ICG uptake” value (in vivo) was 15 to 30 s.
